Literature values in US12295943B2 (Closed Loop Medicine Ltd., priority 2023, dated 2025).

Structure (SMILES): COc1ccc(-n2nc(C(N)=O)c3c2C(=O)N(c2ccc(N4CCCCC4=O)cc2)CC3)cc1 [Apixaban]
- daily average levels giving best balance between reduction in stroke and minimization of bleeding (daily average): ~125 ng/mL
- trough levels giving best balance between reduction in stroke and minimization of bleeding (trough): 50 to 75 ng/mL
